Laboratory results as given in patent US11053230B2, “3-hydroxy-imidazolidin-4-one compounds as inhibitors of indoleamine 2,3-dioxygenase” (Netherlands Translational Research Center B.V., priority 2017, dated 2021).
Some results were stated once for a whole list of compounds, not compound by compound.

Sequences of proteins named here, by UniProt entry; tags and fusion partners are left off.
UniProt P14902, whole entry: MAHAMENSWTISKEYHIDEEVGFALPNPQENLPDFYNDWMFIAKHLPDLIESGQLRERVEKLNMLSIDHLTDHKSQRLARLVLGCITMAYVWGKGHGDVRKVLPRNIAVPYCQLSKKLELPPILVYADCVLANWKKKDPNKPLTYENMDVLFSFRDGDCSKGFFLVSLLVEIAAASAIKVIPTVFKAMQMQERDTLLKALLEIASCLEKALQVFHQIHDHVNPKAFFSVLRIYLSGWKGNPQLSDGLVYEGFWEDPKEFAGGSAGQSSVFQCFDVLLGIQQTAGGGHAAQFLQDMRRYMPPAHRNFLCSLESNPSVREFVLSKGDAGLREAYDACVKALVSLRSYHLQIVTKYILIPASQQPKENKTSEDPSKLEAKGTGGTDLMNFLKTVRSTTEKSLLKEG

Biological target: T1, IDO1 (Homo sapiens, UniProt P14902)
T1 construct: Recombinant full-length IDO1 (Seegers, N., et al.) and all other assay components were diluted in IDO1 reaction buffer; made in house
Assay: Cell-based assay for IDO1 in A-375 melanoma cells
Settings: interferon-γ stimulation, 48 hours, read-out: IC50, cell-based assay for IDO1 (NFK levels)

| Compound | IC50 [µM] |
| --- | --- |
| O=C1CN(C(=O)c2c(F)cccc2Cl)C(c2cc(Br)cs2)N1O (stereo not shown) [Example 7, 2-(4-Bromo-2-thienyl)-1-(2-chloro-6-fluoro-benzoyl)-3-hydroxy-imidazolidin-4-one] | < 5 |
| O=C1CN(C(=O)c2c(F)cc(-c3ccccc3)cc2F)C(c2cc(Br)cs2)N1O (stereo not shown) [Example 85, 2-(4-Bromo-2-thienyl)-1-(2,6-difluoro-4-phenyl-benzoyl)-3-hydroxy-imidazolidin-4-one] | < 5 |
| N#Cc1cc(F)c(C(=O)N2CC(=O)N(O)C2c2cc(Br)cs2)c(F)c1 (stereo not shown) [Example 117, 4-[2-(4-Bromo-2-thienyl)-3-hydroxy-4-oxo-imidazolidine-1-carbonyl]-3,5-difluoro-benzonitrile] | < 5 |
| O=C1CN(C(=O)c2c(F)cccc2F)C(c2cc(Br)c(F)s2)N1O (single isomer, unassigned) [Example 110b, 2-(4-Bromo-5-fluoro-2-thienyl)-1-(2,6-difluorobenzoyl)-3-hydroxy-imidazolidin-4-one] | < 5 |
| O=C1CN(C(=O)c2c(F)ccc(-c3ccc(F)s3)c2F)C(c2cc(Br)cs2)N1O (stereo not shown) [Example 132, 2-(4-Bromo-2-thienyl)-1-[2,6-difluoro-3-(5-fluoro-2-thienyl)benzoyl]-3-hydroxy-imidazolidin-4-one] | < 5 |
| O=C1CN(C(=O)c2c(F)cccc2Cl)C(c2csc(Br)c2)N1O (stereo not shown) [Example 99, 2-(5-Bromo-3-thienyl)-1-(2-chloro-6-fluoro-benzoyl)-3-hydroxy-imidazolidin-4-one] | < 5 |
| O=C1CN(C(=O)c2c(F)cccc2F)C(c2csc(Br)c2)N1O (stereo not shown) [Example 28, 2-(5-Bromo-3-thienyl)-1-(2,6-difluorobenzoyl)-3-hydroxy-imidazolidin-4-one] | < 5 |
| NC1(C#Cc2cc(F)c(C(=O)N3CC(=O)N(O)C3c3cc(Br)cs3)c(F)c2)CC1 (stereo not shown) [Example 89, 1-[4-[2-(1-Aminocyclopropyl)ethynyl]-2,6-difluoro-benzoyl]-2-(4-bromo-2-thienyl)-3-hydroxy-imidazolidin-4-one] | < 5 |
| C=Cc1cc(F)c(C(=O)N2CC(=O)N(O)C2c2cc(Br)cs2)c(F)c1 (stereo not shown) [Example 83, 2-(4-Bromo-2-thienyl)-1-(2,6-difluoro-4-vinyl-benzoyl)-3-hydroxy-imidazolidin-4-one] | < 5 |
| O=C1CN(Cc2ccccc2F)C(c2ccc(Br)s2)N1O (stereo not shown) [Example 41, 2-(5-Bromo-2-thienyl)-1-[(2-fluorophenyl)methyl]-3-hydroxy-imidazolidin-4-one] | < 5 |
| O=C1CN(C(=O)c2c(F)cccc2F)C(c2ccc(Br)s2)N1O (single isomer, unassigned) [Example 49b, 2-(5-Bromo-2-thienyl)-1-(2,6-difluorobenzoyl)-3-hydroxy-imidazolidin-4-one] | < 5 |
| CC(=O)NCC#Cc1cc(F)c(C(=O)N2CC(=O)N(O)C2c2cc(Br)cs2)c(F)c1 (stereo not shown) [Example 130, N-[3-[4-[2-(4-Bromo-2-thienyl)-3-hydroxy-4-oxo-imidazolidine-1-carbonyl]-3,5-difluoro-phenyl]prop-2-ynyl]acetamide] | < 5 |
| O=C1CN(C(=O)c2c(F)cccc2F)C(c2ccc(Br)s2)N1O (stereo not shown) [Example 4, 2-(5-Bromo-2-thienyl)-1-(2,6-difluorobenzoyl)-3-hydroxy-imidazolidin-4-one] | < 5 |
| O=C1CN(C(=O)c2ccccc2Cl)C(c2cc(Br)cs2)N1O (stereo not shown) [Example 55, 2-(4-Bromo-2-thienyl)-1-(2-chlorobenzoyl)-3-hydroxy-imidazolidin-4-one] | < 5 |
| O=C1CN(C(=O)c2c(F)cccc2F)C(c2cc(Br)c(Cl)s2)N1O (stereo not shown) [Example 115, 2-(4-Bromo-5-chloro-2-thienyl)-1-(2,6-difluorobenzoyl)-3-hydroxy-imidazolidin-4-one] | < 5 |
| Nc1ccc(F)c(C(=O)N2CC(=O)N(O)C2c2cc(Br)cs2)c1F (stereo not shown) [Example 105, 1-(3-Amino-2,6-difluoro-benzoyl)-2-(4-bromo-2-thienyl)-3-hydroxy-imidazolidin-4-one] | < 5 |
| Cn1cc(-c2ccc(F)c(C(=O)N3CC(=O)N(O)C3c3csc(Br)c3)c2F)cn1 (stereo not shown) [Example 124, 2-(5-Bromo-3-thienyl)-1-[2,6-difluoro-3-(1-methylpyrazol-4-yl)benzoyl]-3-hydroxy-imidazolidin-4-one] | < 5 |
| C#Cc1csc(C2N(O)C(=O)CN2C(=O)c2c(F)cccc2F)c1 (stereo not shown) [Example 1, 1-(2,6-Difluorobenzoyl)-2-(4-ethynyl-2-thienyl)-3-hydroxy-imidazolidin-4-one] | < 5 |
| O=C1CN(C(=O)c2c(F)cccc2C(F)(F)F)C(c2cc(Br)cs2)N1O (stereo not shown) [Example 11, 2-(4-Bromo-2-thienyl)-1-[2-fluoro-6-(trifluoromethyl)benzoyl]-3-hydroxy-imidazolidin-4-one] | < 5 |
| O=C1CN(C(=O)c2c(F)ccc(-c3ccc(F)cc3)c2F)C(c2cc(Br)cs2)N1O (stereo not shown) [Example 136, 2-(4-Bromo-2-thienyl)-1-[2,6-difluoro-3-(4-fluorophenyl)benzoyl]-3-hydroxy-imidazolidin-4-one] | < 5 |

| Compound | IC50 [µM] |
| --- | --- |
| O=C1CN(C(=O)c2ccccc2F)C(c2csc(Br)c2)N1O (stereo not shown) [Example 98, 2-(5-Bromo-3-thienyl)-1-(2-fluorobenzoyl)-3-hydroxy-imidazolidin-4-one] | < 5 |
| O=C1CN(C(=O)c2c(F)ccc(-c3ccccc3)c2F)C(c2csc(Br)c2)N1O (stereo not shown) [Example 123, 2-(5-Bromo-3-thienyl)-1-(2,6-difluoro-3-phenyl-benzoyl)-3-hydroxy-imidazolidin-4-one] | < 5 |
| O=C1CN(C(=O)c2c(F)cccc2F)C(c2cc(I)c(F)s2)N1O (stereo not shown) [Example 116, 1-(2,6-Difluorobenzoyl)-2-(5-fluoro-4-iodo-2-thienyl)-3-hydroxy-imidazolidin-4-one] | < 5 |
| O=C1CN(C(=O)c2c(F)ccc(-c3ccc4ccccc4c3)c2F)C(c2cc(Br)cs2)N1O (stereo not shown) [Example 135, 2-(4-Bromo-2-thienyl)-1-[2,6-difluoro-3-(2-naphthyl)benzoyl]-3-hydroxy-imidazolidin-4-one] | < 5 |
| O=C1CN(C(=O)c2ccc(Cl)cc2Cl)C(c2cc(Br)cs2)N1O (stereo not shown) [Example 68, 2-(4-Bromo-2-thienyl)-1-(2,4-dichlorobenzoyl)-3-hydroxy-imidazolidin-4-one] | < 5 |
| O=C1CN(Cc2c(F)cccc2F)C(c2cc(Br)cs2)N1O (single isomer, unassigned) [Example 45b, 2-(4-Bromo-2-thienyl)-1-[(2,6-difluorophenyl)methyl]-3-hydroxy-imidazolidin-4-one] | < 5 |
| O=C1CN(C(=O)c2c(F)ccc(-c3cccs3)c2F)C(c2cc(Br)cs2)N1O (stereo not shown) [Example 131, 2-(4-Bromo-2-thienyl)-1-[2,6-difluoro-3-(2-thienyl)benzoyl]-3-hydroxy-imidazolidin-4-one] | < 5 |
| O=C1CN(C(=O)c2c(F)cccc2F)C(c2cc(Br)cs2)N1O (stereo not shown) [Example 8, 2-(4-Bromo-2-thienyl)-1-(2,6-difluorobenzoyl)-3-hydroxy-imidazolidin-4-one] | < 5 |
| C=Cc1ccc(F)c(C(=O)N2CC(=O)N(O)C2c2cc(Br)cs2)c1F (stereo not shown) [Example 128, 2-(4-Bromo-2-thienyl)-1-(2,6-difluoro-3-vinyl-benzoyl)-3-hydroxy-imidazolidin-4-one] | < 5 |
| O=C1CN(Cc2ccccc2F)C(c2cc(Br)cs2)N1O (stereo not shown) [Example 43, 2-(4-Bromo-2-thienyl)-1-[(2-fluorophenyl)methyl]-3-hydroxy-imidazolidin-4-one] | < 5 |
| CS(=O)(=O)NCC#Cc1cc(F)c(C(=O)N2CC(=O)N(O)C2c2cc(Br)cs2)c(F)c1 (stereo not shown) [Example 40, N-[3-[4-[2-(4-bromo-2-thienyl)-3-hydroxy-4-oxo-imidazolidine-1-carbonyl]-3,5-difluoro-phenyl]-prop-2-ynyl]methanesulfonamide] | < 5 |
| O=C1CN(C(=O)c2c(F)cc(-c3cccs3)cc2F)C(c2cc(Br)cs2)N1O (stereo not shown) [Example 87, 2-(4-Bromo-2-thienyl)-1-[2,6-difluoro-4-(2-thienyl)benzoyl]-3-hydroxy-imidazolidin-4-one] | < 5 |
| COc1ccc(F)c(C(=O)N2CC(=O)N(O)C2c2csc(Br)c2)c1F (stereo not shown) [Example 104, 2-(5-Bromo-3-thienyl)-1-(2,6-difluoro-3-methoxy-benzoyl)-3-hydroxy-imidazolidin-4-one] | < 5 |
| C#Cc1csc(C2N(O)C(=O)CN2C(=O)c2ccccc2F)c1 (stereo not shown) [Example 35, 2-(4-Ethynyl-2-thienyl)-1-(2-fluorobenzoyl)-3-hydroxy-imidazolidin-4-one] | < 5 |
| O=C1CN(C(=O)c2c(F)cc(C3CC3)cc2F)C(c2cc(Br)cs2)N1O (stereo not shown) [Example 82, 2-(4-Bromo-2-thienyl)-1-(4-cyclopropyl-2,6-difluoro-benzoyl)-3-hydroxy-imidazolidin-4-one] | < 5 |
| O=C1CN(C(=O)c2c(F)cccc2F)C(c2cc(Cl)cs2)N1O (stereo not shown) [Example 33, 2-(4-Chloro-2-thienyl)-1-(2,6-difluorobenzoyl)-3-hydroxy-imidazolidin-4-one] | < 5 |
| [2H]c1sc(C2N(O)C(=O)CN2C(=O)c2c(F)cccc2F)cc1Br (stereo not shown) [Example 111, 2-(4-Bromo-5-deuterio-2-thienyl)-1-(2,6-difluorobenzoyl)-3-hydroxy-imidazolidin-4-one] | < 5 |
| Cc1sc(C2N(O)C(=O)CN2C(=O)c2c(F)cccc2F)cc1Br (stereo not shown) [Example 113, 2-(4-bromo-5-methyl-2-thienyl)-1-(2,6-difluorobenzoyl)-3-hydroxy-imidazolidin-4-one] | < 5 |
| CC(C)C=Cc1cc(F)c(C(=O)N2CC(=O)N(O)C2c2cc(Br)cs2)c(F)c1 (stereo not shown) [Example 94, 2-(4-Bromo-2-thienyl)-1-[2,6-difluoro-4-[3-methylbut-1-enyl]benzoyl]-3-hydroxy-imidazolidin-4-one] | < 5 |
| O=C1CN(C(=O)c2c(F)ccc(-c3ccccc3)c2F)C(c2cc(Br)cs2)N1O (stereo not shown) [Example 122, 2-(4-Bromo-2-thienyl)-1-(2,6-difluoro-3-phenyl-benzoyl)-3-hydroxy-imidazolidin-4-one] | < 5 |
